US20230105693A1, “ANTIMICROBIAL COMPOSITIONS” (Firmenich SA, priority 2020, published 2023)
Some entries share one result that the patent states for a list of compounds. At least one compound was matched to its structure with a doubt left.

The compounds below were run on E. coli ATCC 10536 (assay: Bacterial contact time (BCT) test of perfume ingredients in 20% ethanol solution (EN-1276 based)). Conditions: concentration for at least 5.5 log reduction, contact time 45 s.
Assay type: cell-based, Escherichia coli
Procedure: Bacterial suspensions of E. coli ATCC 10536 were prepared for antimicrobial testing as follows. Stock cultures stored at -80° C. were sub-cultured onto Tryptic Soy Agar (TSA) plate, and incubated at 37° C. for 24 h to obtain single colonies. Single colonies of the primary cultures were streaked onto TSA plates and incubated at 37° C. for 24 h to prepare the secondary cultures. Single colonies of secondary cultures were inoculated into 50 mL of Tryptic Soy broth (TSB), incubated at 37° C. 180 rpm for 18 h. Aliquots (0.5 ml) of the 18 h culture were inoculated into 50 ml of fresh TSB, and incubated at 37° C. 180 rpm for 2- 3 hours. When the OD600 nm value of the broth reached 1-2, cells were harvested by centrifugation at 5,000 rpm for 10 min, and then resuspended in the same fresh broth media to achieve the target level of 1-5 × 10^8 colony forming unit (CFU)/mL. This suspension was used for further antimicrobial tests.
Unless indicated otherwise, log reduction testing according to the present invention is determined in accordance with the following method.
Bacterial contact time (BCT) test based on European standard EN-1276 was used to determine dose dependent bactericidal activity of perfume ingredients in 20% ethanol solutions.
Perfume ingredients of various concentrations (doses) were prepared in 40% ethanol solutions. Eleven replicates of each sample were added into 96-well microtiter plates (120 µl per well) in column 1-11 of one row, with row B as the control sample of the ethanol solution. Then, 120 µl of cell suspension at a concentration of approximately 1-5 × 10^8 CFU/ML (as prepared above) were added to each well of the microtiter plate. A specified contact time (45 s) was allowed for target bacterial strains. At the end of the contact time, serial dilutions were prepared in 96 well plates with growth media: 3 times of 1 in 10 dilutions and followed by 17 times of 1 in 2 dilutions. Each plate was sealed and incubated at 37° C. under agitation (180 rpm). After incubation, turbidity of the wells (OD 600 nm) was recorded by Tecan microplate reader. Turbid cells were regarded as positive growth of viable cells. The total number of viable cells (log CFU/mL) for each sample was calculated. And the log reduction for each test composition at the final concentration (dose) was calculated against the control sample of the 20% ethanol solution.
Table 20 show the bactericidal dose related effect (log reduction) and calculated effect fraction of the Mixture C and compositions against E. coli ATCC 10536. Stock of compositions were prepared in 100% ethanol, then diluted in MilliQ water to obtain 2 × final concentration in 40% ethanol. BCT tests were conducted on samples against E. coli for a contact time of 45 s.

Row | SMILES | bactericidal activity in ethanol solutions (group)
1 | CCCCCC/C=C\C=O [(Z)-2-nonenal] | high (at least a 5.5 log reduction in bacterial viability at less than or equal to 0.1% (w/v) of the bactericidal perfume ingredients in ethanol solution)
2 | CC(C)COC(=O)C(C)C [isobutyl isobutyrate] | medium (at least a 5.5 log reduction in bacterial viability at a concentration within 0.1 - 0.5% (w/v) of the bactericidal perfume ingredients in ethanol solution)
3 | CC(=O)OCCc1ccccc1 [2-phenylethyl acetate] | medium (at least a 5.5 log reduction in bacterial viability at a concentration within 0.1 - 0.5% (w/v) of the bactericidal perfume ingredients in ethanol solution)
4 | CC1=CC(C)C(C)C(C=O)C1 (centres unmarked) [3,5,6-trimethyl-3-cyclohexene-1-carbaldehyde] | medium (at least a 5.5 log reduction in bacterial viability at a concentration within 0.1 - 0.5% (w/v) of the bactericidal perfume ingredients in ethanol solution)
5 | COC(=O)/C=C/c1ccccc1 [methyl (E)-3-phenyl-2-propenoate] | high (at least a 5.5 log reduction in bacterial viability at less than or equal to 0.1% (w/v) of the bactericidal perfume ingredients in ethanol solution)
6 | CC(C)c1ccc2c(c1)OCC(=O)CO2 [7-isopropyl-2H,4H-1,5-benzodioxepin-3-one] | medium (at least a 5.5 log reduction in bacterial viability at a concentration within 0.1 - 0.5% (w/v) of the bactericidal perfume ingredients in ethanol solution)
7 | CC(C)(C)Cc1cccnc1 [3-(2,2-dimethylpropyl)pyridine] | medium (at least a 5.5 log reduction in bacterial viability at a concentration within 0.1 - 0.5% (w/v) of the bactericidal perfume ingredients in ethanol solution)
8 | CCCCCCCCO [1-octanol] | high (at least a 5.5 log reduction in bacterial viability at less than or equal to 0.1% (w/v) of the bactericidal perfume ingredients in ethanol solution)
9 | CCCc1ccc2c(c1)OC(C(C)=O)O2 (centres unmarked) [1-(5-propyl-1,3-benzodioxol-2-yl)ethenone] | high (at least a 5.5 log reduction in bacterial viability at less than or equal to 0.1% (w/v) of the bactericidal perfume ingredients in ethanol solution)
10 | CCCCCC1COCCC1OC(C)=O (centres unmarked) [tetrahydro-3-pentyl-4(2H)-pyranyl acetate] | medium (at least a 5.5 log reduction in bacterial viability at a concentration within 0.1 - 0.5% (w/v) of the bactericidal perfume ingredients in ethanol solution)
11 | CC12CCC(C1)C(C)(C)C2O (centres unmarked) [1,3,3-trimethylbicyclo[2.2.1]heptan-2-ol] | high (at least a 5.5 log reduction in bacterial viability at less than or equal to 0.1% (w/v) of the bactericidal perfume ingredients in ethanol solution)
12 | CCC(=O)OCC(C)CC (centres unmarked) [2-methylbutyl propionate] | medium (at least a 5.5 log reduction in bacterial viability at a concentration within 0.1 - 0.5% (w/v) of the bactericidal perfume ingredients in ethanol solution)
13 | CC1CCC(C(C)(C)S)C(=O)C1 (centres unmarked) [8-mercapto-3-p-menthanone] | high (at least a 5.5 log reduction in bacterial viability at less than or equal to 0.1% (w/v) of the bactericidal perfume ingredients in ethanol solution)
14 | CC1OC(C)C2Cc3ccccc3C2O1 (centres unmarked) [2,4-dimethyl-4,4a,5,9b-tetrahydroindeno[1,2-d][1,3]dioxine] | medium (at least a 5.5 log reduction in bacterial viability at a concentration within 0.1 - 0.5% (w/v) of the bactericidal perfume ingredients in ethanol solution)
15 | CC/C=C\CC/C=C/C=O [(2E,6Z)-2,6-nonadienal] | high (at least a 5.5 log reduction in bacterial viability at less than or equal to 0.1% (w/v) of the bactericidal perfume ingredients in ethanol solution)
16 | CCCCOC(=O)C(C)OC(=O)CCC (centres unmarked) [1-butoxycarbonylethyl butanoate] | high (at least a 5.5 log reduction in bacterial viability at less than or equal to 0.1% (w/v) of the bactericidal perfume ingredients in ethanol solution)
17 | COC(=O)c1ccccc1O [methyl 2-hydroxybenzoate] | medium (at least a 5.5 log reduction in bacterial viability at a concentration within 0.1 - 0.5% (w/v) of the bactericidal perfume ingredients in ethanol solution)
